These are yes or no findings as the source states them, for the method shown. Binding can be weak; no strength is given.
What follows are binders tested against HLA-B*44:05 (human) (assay: UV peptide-exchange ELISA, yield grade).

| binding | Binder |
| --- | --- |
| binds | AELEGALQKA [… (SEQ ID NO: 74)] |
| binds | TEGGTQKTF [… (SEQ ID NO: 83)] |
| binds | EDNPSGHTY [… (SEQ ID NO: 52)] |
| binds | SELGLPKEV [… (SEQ ID NO: 46)] |
| binds | TEQSLYYRQW [… (SEQ ID NO: 80)] |
| binds | TEFHMQFSY [… (SEQ ID NO: 55)] |
| binds | SEYVHSSFSGF [… (SEQ ID NO: 50)] |
| binds | EESLLSSW [EESLLSSW (SEQ ID NO: 90)] |
| binds | EEYQDSFERY [… (SEQ ID NO: 64)] |
| binds | GEKATMQNL [… (SEQ ID NO: 81)] |
| binds | KEMDPSRQSY [… (SEQ ID NO: 58)] |
| binds | AAFEDAQGHIW [… (SEQ ID NO: 95)] |
| binds | KEDNPSGHTY [… (SEQ ID NO: 53)] |
| binds | ALEEGGGYIF [… (SEQ ID NO: 56)] |
| binds | EEAVRSVAF [… (SEQ ID NO: 60)] |
| binds | TEGAVEVKY [… (SEQ ID NO: 67)] |
| binds | TEFSNHINL [… (SEQ ID NO: 78)] |
| binds | TEAQRLDCW [… (SEQ ID NO: 79)] |
| binds | SESMVESKF [… (SEQ ID NO: 65)] |
| binds | QTLKAMVQAW [… (SEQ ID NO: 86)] |
| binds | EESLLSSWDF [… (SEQ ID NO: 91)] |
| binds | GEGTLRLSW [… (SEQ ID NO: 73)] |
| binds | GEARGDQVDW [… (SEQ ID NO: 87)] |
| binds | DENIQKFIW [… (SEQ ID NO: 69)] |

| binding | Binder |
| --- | --- |
| binds | AEYSVHKITSTF [… (SEQ ID NO: 62)] |
| binds | VEMTGKHQL [… (SEQ ID NO: 51)] |
| binds | KEFYPVKEF [… (SEQ ID NO: 89)] |
| binds | NEIDIHSIYF [… (SEQ ID NO: 68)] |
| binds | QEISAHRTEF [… (SEQ ID NO: 54)] |
| binds | SEAGLTANQY [… (SEQ ID NO: 93)] |
| binds | KEPSQSCIAQY [… (SEQ ID NO: 92)] |
| binds | MDELEEGESY [… (SEQ ID NO: 96)] |
| binds | AEVGDIIKV [… (SEQ ID NO: 71)] |
| binds | AEYSVHKI [AEYSVHKI (SEQ ID NO: 61)] |
| binds | TEVHSSPAQRW [… (SEQ ID NO: 47)] |
| binds | AEVGDIIKVHF [… (SEQ ID NO: 72)] |
| binds | RLNEHPSNNW [… (SEQ ID NO: 76)] |
| binds | QETLAESTW [… (SEQ ID NO: 77)] |
| binds | SEYVHSSF [SEYVHSSF (SEQ ID NO: 49)] |
| binds | AEIEADRSYQ [… (SEQ ID NO: 59)] |
| binds | AEVTLNNTI [… (SEQ ID NO: 66)] |
| binds | AETSYVKVLEY [… (SEQ ID NO: 84)] |
| binds | SLAELIAKDW [… (SEQ ID NO: 94)] |
| binds | SEIDEKVTDL [… (SEQ ID NO: 85)] |
| binds | SEATHIITI [… (SEQ ID NO: 57)] |
| binds | AEAEEAMKRL [… (SEQ ID NO: 70)] |
| binds | LETSCGSSTAY [… (SEQ ID NO: 75)] |

From patent US20230287071A1
